Results as given in PMC6497644.
No constants are given. Whether binding was seen depends on the method and setting. Some results given as binding are weak or reduced against the parent protein; the word gives no strength.

Target: T1, TMEM33 N term (amino acids 1–24), in frame with LexA (UniProt Q9CR67)
T1 sequence: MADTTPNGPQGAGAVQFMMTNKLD
Assay: two-hybrid; LexA/B42 Grow'n'Glow system, yeast EGY48; bait TMEM33 terminus in frame with LexA, prey PC2 terminus in frame with B42; growth on -HIS-TRP-URA-LEU + galactose and GFP

binding: binds
B1: PC2 C term (amino acids 677–968), in frame with B42 (domain or fragment, UniProt Q13563 677-968)
chain: LAIINDTYSEVKSDLAQQKAEMELSDLIRKGYHKALVKLKLKKNTVDDISESLRQGGGKLNFDELRQDLKGKGHTDAEIEAIFTKYDQDGDQELTEHEHQQMRDDLEKEREDLDLDHSSLPRPMSSRSFPRSLDDSEEDDDEDSGHSSRRRGSISSGVSYEEFQVLVRRVDRMEHSIGSIVSKIDAVIVKLEIMERAKLKRREVLGRLLDGVAEDERLGRDSEIHREQMERLVREELERWESDDAASQISHGLGTPVGLNGQPRPRSSRPSSSQSTEGMEGAGGNGSSNVHV
